Measured data: PubChem BioAssay AID493246 (Drosophila RNAi Screening Center, 2011)

- Test: 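Genes fly cells need to grow and stay alive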 (primary screen)
- System: Drosophila Kc and S2R+ cells
- Reagent: long dsRNA against Drosophila genes
- Detection: 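Cell number per well after knock-down, printed as raw plate values; calls were based on per-plate z-scores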
- Direction: Kc cell number and S2R+ cell number: higher = more cells remaining
- Active means: 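Active when the per-plate z-score of cell number is 3 or more in the direction of fewer cells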
The screen tested about 21,000 reagents; shown is a random part of those with a known target gene and a result. Of all reagents, 429 (2%) are marked active. 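Values are raw and not normalised between plates; calls rest on per-plate z-scores that were not deposited.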 Entries without a mark were called inactive. The record does not give: the amount of reagent, the time to read-out.

With CG4287 [DRSC15559], how do the results read?
Kc cell number, rep 1: 1.63e6; Kc cell number, rep 2: 1.75e6; S2R+ cell number, rep 1: 1.17e6; S2R+ cell number, rep 2: 1.30e6

With CG8004 [DRSC10947], what was measured?
Kc cell number, rep 1: 1.50e6; Kc cell number, rep 2: 1.58e6; S2R+ cell number, rep 1: 1.21e6; S2R+ cell number, rep 2: 1.26e6

With CG18048 [DRSC12573], what does the deposit list?
Kc cell number, rep 1: 1.48e6; Kc cell number, rep 2: 1.57e6; S2R+ cell number, rep 1: 1.24e6; S2R+ cell number, rep 2: 1.34e6

How did the screen score obst-A [DRSC20543]?
Kc cell number, rep 1: 1.53e6; Kc cell number, rep 2: 1.58e6; S2R+ cell number, rep 1: 1.04e6; S2R+ cell number, rep 2: 1.17e6

For CG31751 [DRSC02464], how do the results read?
Kc cell number, rep 1: 1.59e6; Kc cell number, rep 2: 1.61e6; S2R+ cell number, rep 1: 1.20e6; S2R+ cell number, rep 2: 3.03e5

Which result is listed for CG31751 [DRSC02465]?
Kc cell number, rep 1: 1.56e6; Kc cell number, rep 2: 1.59e6; S2R+ cell number, rep 1: 1.32e6; S2R+ cell number, rep 2: 2.80e5

With Spn28Da [DRSC02162], what was measured?
Kc cell number, rep 1: 1.60e6; Kc cell number, rep 2: 1.66e6; S2R+ cell number, rep 1: 1.14e6; S2R+ cell number, rep 2: 1.28e6

With Grasp65 [DRSC10917], how do the results read?
Kc cell number, rep 1: 1.38e6; Kc cell number, rep 2: 1.42e6; S2R+ cell number, rep 1: 1.31e6; S2R+ cell number, rep 2: 1.36e6

What did the screen give for Sik2 [DRSC18522]?
Kc cell number, rep 1: 1.53e6; Kc cell number, rep 2: 1.52e6; S2R+ cell number, rep 1: 1.10e6; S2R+ cell number, rep 2: 1.19e6

What did the screen give for CG13481 [DRSC10023]?
Kc cell number, rep 1: 1.36e6; Kc cell number, rep 2: 1.44e6; S2R+ cell number, rep 1: 1.27e6; S2R+ cell number, rep 2: 1.39e6

With CG17698 [DRSC11907], how do the results read?
Kc cell number, rep 1: 1.40e6; Kc cell number, rep 2: 1.45e6; S2R+ cell number, rep 1: 1.27e6; S2R+ cell number, rep 2: 1.32e6

For CG41520 [DRSC21102], what does the deposit list?
Kc cell number, rep 1: 1.22e6; Kc cell number, rep 2: 1.34e6; S2R+ cell number, rep 1: 1.06e6; S2R+ cell number, rep 2: 1.12e6

With CG41520 [DRSC21103], what was measured?
Kc cell number, rep 1: 1.46e6; Kc cell number, rep 2: 1.49e6; S2R+ cell number, rep 1: 1.04e6; S2R+ cell number, rep 2: 1.16e6

For CG42288 [DRSC06381], what does the deposit list?
Kc cell number, rep 1: 1.71e6; Kc cell number, rep 2: 1.75e6; S2R+ cell number, rep 1: 1.43e6; S2R+ cell number, rep 2: 1.61e6

Which result is listed for PpY-55A [DRSC07513]?
Kc cell number, rep 1: 1.56e6; Kc cell number, rep 2: 1.61e6; S2R+ cell number, rep 1: 1.28e6; S2R+ cell number, rep 2: 1.36e6

Which result is listed for Moe [DRSC18684]?
Kc cell number, rep 1: 5.23e5; S2R+ cell number, rep 1: 8.73e5

With Tab2 [DRSC07481], what was measured?
Kc cell number, rep 1: 1.56e6; Kc cell number, rep 2: 1.58e6; S2R+ cell number, rep 1: 1.15e6; S2R+ cell number, rep 2: 1.19e6

With CG33337 [DRSC13632], what does the deposit list?
Kc cell number, rep 1: 1.31e6; Kc cell number, rep 2: 1.35e6; S2R+ cell number, rep 1: 1.04e6; S2R+ cell number, rep 2: 1.13e6

With gkt [DRSC00821], how do the results read?
Kc cell number, rep 1: 1.55e6; Kc cell number, rep 2: 1.51e6; S2R+ cell number, rep 1: 1.15e6; S2R+ cell number, rep 2: 1.27e6

For dgt4 [DRSC18659], what was measured?
Kc cell number, rep 1: 1.57e6; Kc cell number, rep 2: 1.47e6; S2R+ cell number, rep 1: 1.00e6; S2R+ cell number, rep 2: 1.13e6

For Mcm6 [DRSC18680], what was measured?
Kc cell number, rep 1: 5.33e5; S2R+ cell number, rep 1: 8.77e5
